# Data: patent US8501779B2, “Polymorphs of donepezil salts, preparation methods and uses thereof” (priority 2007, dated 2013)
# Conditions: description of the taste in words
row,Compound,Taste Test Results: Description
1,"CC(=O)Oc1ccccc1C(=O)O.COc1cc2c(cc1OC)C(=O)C(CC1CCN(Cc3ccccc3)CC1)C2 (stereo not drawn) [Example 92, Donepezil Acetylsalicylate]",non-bitter
2,Donepezil Formate [Example 97],highly-bitter
3,"C/C=C/C=C/C(=O)O.COc1cc2c(cc1OC)C(=O)C(CC1CCN(Cc3ccccc3)CC1)C2 (stereo not drawn) [Example 102, Donepezil Sorbate]",highly-bitter
4,"COc1cc2c(cc1OC)C(=O)C(CC1CCN(Cc3ccccc3)CC1)C2.O=C(O)c1cc(O)c(O)c(O)c1 (stereo not drawn) [Example 98, Donepezil Gallate]",non-bitter
5,Donepezil Citrate [Example 95],"sour, highly-bitter"
6,Donepezil Acetate [Example 100],highly-bitter
